# The campaign covered roughly 340,000 compounds. About 6,200 (1.8%) were called active. Inconclusive results, whose numbers are uncertain, are shown with a selection of clear calls. Calls follow the shape of the dose curve; as a rule, active = well fitted activation curve with a large enough effect; inconclusive = small, poorly fitted or top-dose-only effect; inactive = no such curve, though single readings can be large or run the other way. A potency beside an inconclusive call is a rough fit, not a confirmed value.
# Experiment: A quantitative high throughput screen for small molecules that induce DNA re-replication in SW480 colon adenocarcinoma cells. Also: nearly all actives have a fitted effect of over 55% in size. As to re-replication activation: % of control where 0% means no effect.
# Details: Hoechst DNA content imaging, 48 h; re-replication activation: at 46.1 µM (top of the series) unless noted
# Outline: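 Cells (250 per well) received 23 nL compound or DMSO by pin tool and were kept 48 hr at 37 C, 5% CO2. Nuclei were then stained with Hoechst for 40 min and scanned for DNA content.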
# Potency is read from the fitted curve at half-maximal effect.
Compound,re-replication activation,Potency
FC(F)(F)c1cccc(-c2nnc3ccc(C(F)(F)F)cn23)c1,inactive: -17.2%,
CCc1ccc(NC(=O)CSc2ccc(-c3sc(C)nc3C)nn2)cc1,,"inconclusive: 29.1 µM [activator, single point]"
O=c1oc2ccccc2c(NC2CCCCC2)c1NS(=O)(=O)c1ccc(F)cc1,,"inconclusive: 29.1 µM [activator, single point]"
O=C(C1=C[C@H](c2ccc(C(F)(F)F)cc2)C[C@H](OCCCCO)O1)N1CCOCC1,,"inconclusive: 2.06 µM [activator, partial curve, poor fit]"
N=c1sccn1CC(=O)Nc1ccc(S(N)(=O)=O)cc1,,"inconclusive: 3.66 µM [activator, single point]"
COc1cc(OC)c2c(-c3cccc(-c4ccc(NC(C)=O)cc4)c3)cc(=O)oc2c1,,active: 9.2 µM
Cc1ccccc1-n1c(O)c(/C=C/C=Nc2ccccc2)c(=O)[nH]c1=O,inactive: -9.11%,
Oc1cccc(/C=N/Nc2ccc(Cl)nn2)c1,,"inconclusive: 29.1 µM [activator, single point]"
O=C(Nc1nc(-c2ccc(F)c(F)c2)cs1)C1=COCCO1,,"inconclusive: 29.1 µM [activator, single point]"
COCC(=O)N(Cc1cc2cccc(C)c2[nH]c1=O)c1ccccc1,,"inconclusive: 23.1 µM [activator, single point]"
CCN(CC(=O)Nc1ccc(NC(C)=O)cc1)C(=O)CCCOc1cccc(C)c1,,"inconclusive: 29.1 µM [activator, partial curve, poor fit]"
CN(Cc1c(F)cccc1Cl)C(=O)c1ccc(NC(=O)CC2SC(N3CCCC3)=NC2=O)cc1 (centres undefined),inactive: -1.63%,
CN(C)C(=O)c1cc(C(=O)c2ccccc2Br)c[nH]1,inactive: -16.2%,
CCCC(C)NC(=O)c1sc2nc3n(c(=O)c2c1C)CCC3 (centres undefined),inactive: -9.32%,
CC1CCCC(C)N1CCCNC(=O)c1ccc2nc(N3CCCCC3)sc2c1 (centres undefined),,"inconclusive: 20.6 µM [activator, single point]"
c1ccc(CCSc2ncnc3nc[nH]c23)cc1,,"inconclusive: 18.4 µM [activator, single point]"
CCOC(=O)CNC(=O)Cn1cnc2c(oc3ccccc32)c1=O,,"inconclusive: 29.1 µM [activator, single point]"
Cc1cc(C)n(-c2nc(NCCN(C)C)c3c4c(sc3n2)CCCC4)n1,,"inconclusive: 29.1 µM [activator, single point]"
Cc1cc(C)cc(NC(=S)Nc2cccc3ccccc23)c1,inactive: 11.8%,
CCOC(=O)c1sc(SC)c2c1CCCC2=O,,"inconclusive: 0.0046 µM [activator, full curve, poor fit]"
CCOC(=O)c1sc(Nc2nc3c(F)cccc3s2)cc1C,,"inconclusive: 18.4 µM [activator, partial curve, poor fit]"
COC(=O)[C@@]1(Cc2ccc(F)cc2)[C@H]2c3cc(C(=O)N4CCCC4)n(CCCNc4ncc(C(F)(F)F)cc4Cl)c3C[C@H]2CN1C(=O)c1ccccc1,,"inconclusive: 25.9 µM [activator, single point]"
CCn1c(=N)n(CC(=O)c2cccc([N+](=O)[O-])c2)c2ccccc21,inactive: 1.14%,

# 6 entries picked at random from those above, as already listed:
Compound,re-replication activation,Potency
O=C(Nc1nc(-c2ccc(F)c(F)c2)cs1)C1=COCCO1,,"inconclusive: 29.1 µM [activator, single point]"
CC1CCCC(C)N1CCCNC(=O)c1ccc2nc(N3CCCCC3)sc2c1 (centres undefined),,"inconclusive: 20.6 µM [activator, single point]"
COCC(=O)N(Cc1cc2cccc(C)c2[nH]c1=O)c1ccccc1,,"inconclusive: 23.1 µM [activator, single point]"
CCc1ccc(NC(=O)CSc2ccc(-c3sc(C)nc3C)nn2)cc1,,"inconclusive: 29.1 µM [activator, single point]"
CN(Cc1c(F)cccc1Cl)C(=O)c1ccc(NC(=O)CC2SC(N3CCCC3)=NC2=O)cc1 (centres undefined),inactive: -1.63%,
O=c1oc2ccccc2c(NC2CCCCC2)c1NS(=O)(=O)c1ccc(F)cc1,,"inconclusive: 29.1 µM [activator, single point]"

# Additional records follow.

Compound,re-replication activation,Potency
COc1ccc(CCN(Cc2cc3cc(C)cc(C)c3nc2Cl)C(=O)C2CC2)cc1,,"inconclusive: 18.4 µM [activator, single point]"
CCOC(=O)Nc1ccc2c(c1)N(C(=O)CCN1CCOCC1)c1ccccc1S2=O (centres undefined),,active: 5.8 µM
CCCCNC(=O)NS(=O)(=O)c1ccc(NS(=O)(=O)c2ccccc2)cc1,inactive: 0.963%,
Cn1c(=O)c2c(nc(CN3CCc4ccccc4C3)n2CCCO)n(C)c1=O,inactive: -0.416%,
CC1=NN(Cc2ccccc2)C(=O)C1C(c1ccccc1)C(C#N)C#N (centres undefined),,"inconclusive: 32.6 µM [activator, partial curve, poor fit]"
O=C(CCCN1C(=O)C2CCCCN2C1=O)N1CCN(c2ccc([N+](=O)[O-])cc2)CC1 (centres undefined),inactive: -8.02%,
O=C(CSc1ncn[nH]1)CSc1ncn[nH]1,inactive: 11.2%,
O=C(/C=C/c1ccccc1)Nc1ncn[nH]1,,"inconclusive: 1.64 µM [activator, partial curve, poor fit]"
CCCc1ccc(Oc2cc(N3CCOCC3)nc(-c3ccccc3)n2)cc1,,"inconclusive: 11.6 µM [activator, single point]"
CSc1nc2ccc(S(=O)(=O)Nc3c(C)n(C)n(-c4ccccc4)c3=O)cc2s1,,"inconclusive: 18.4 µM [activator, partial curve]"
CCCOc1ccc(/C=N/Nc2ccc(C(=O)O)cc2)c(OCCC)c1,,"inconclusive: 14.6 µM [activator, single point]"
CC1CCCN(CCC(=O)c2ccc(Br)cc2)C1 (centres undefined),,"inconclusive: 16.4 µM [activator, single point]"
Cc1nc(SCC(=O)NCC2CCCO2)nc(C)c1C (centres undefined),,"inconclusive: 11.6 µM [activator, single point]"
COc1ccc2oc(=O)c(C(=O)OCc3ccccc3)cc2c1,inactive: -5.37%,
Cc1ccc2nc3c(cc2c1)CN(Cc1ccco1)C(=NCC1CCCO1)S3 (centres undefined),,"inconclusive: 29.1 µM [activator, partial curve, poor fit]"
CCOC(=O)Nc1ccc2c(c1)N(C(=O)CCCl)c1ccccc1[S@]2=O,,"inconclusive: 6.51 µM [activator, single point]"
Nc1ccc(C(=O)NN2C(=O)[C@H](Cl)C2c2ccc(Cl)cc2)cc1 (some centres undefined),,active: 9.2 µM
COc1ccc(NC(=O)CN(C)CC(=O)NC2CCC(C)CC2)cc1 (centres undefined),inactive: 2.18%,
CCCCn1c(N)c(N(CCC(C)C)C(=O)C2CSC3(C)CCC(=O)N23)c(=O)[nH]c1=O (centres undefined),,"inconclusive: 16.4 µM [activator, single point]"
S=C(NCc1ccc(Cl)cc1)NC1CCN(Cc2ccccc2)CC1,,active: 16.4 µM
CCC(=O)Nc1nc2ccccc2n1CCN(CC)CC,inactive: -5.92%,
CC1=NN(c2ccccc2)C(=O)C1C=Nc1ccc(N(C)C)cc1 (centres undefined),,"inconclusive: 29.1 µM [activator, single point]"
Cc1sc2nc(SCC(=O)C(C)(C)C)n(Cc3ccco3)c(=O)c2c1C,,active: 5.8 µM

Compound,re-replication activation,Potency
CCCCNc1nc(N(C)c2ccccc2)nc(-n2ccnc2)n1,,"inconclusive: 23.1 µM [activator, single point]"
CCCCn1c(N)c(N(CC)C(=O)CN2C(=O)NC(C)(c3ccccc3)C2=O)c(=O)[nH]c1=O (centres undefined),inactive: -7.15%,
CSC(=S)N/N=C/c1ccc(N(C)C)cc1,inactive: 9.41%,
COc1cccc(/C=C2/NC(=O)NC2=O)c1OCC(=O)Nc1ccccc1,,"inconclusive: 0.0052 µM [activator, partial curve, poor fit]"
COc1cccc(/C=N\NC(=O)C2=NNC(=O)C2C)c1O (centres undefined),,"inconclusive: 20.6 µM [activator, partial curve, poor fit]"
CN(c1nccc(=O)[nH]1)C1CCN(c2nc3ccccc3n2Cc2ccc(F)cc2)CC1,,"inconclusive: 18.8 µM [activator, partial curve]"
CCCCOc1ccc(C(=O)OC2CC(C)N(C)CC2C)cc1 (centres undefined),,"inconclusive: 35.5 µM [activator, single point]"
CC1(C(=O)N/N=C/c2ccc3c(c2)OCO3)CC1(Br)Br (centres undefined),inactive: -8.21%,
CCOC(=O)c1cnc(-n2nc(C)cc2C)nc1NCc1ccc2c(c1)OCO2,,"inconclusive: 18.4 µM [activator, partial curve, poor fit]"
CCN1C(=O)[C@H]2[C@H]3CN=C(SC)N3[C@@](CC)(C(=O)OC)[C@H]2C1=O,,"inconclusive: 6.51 µM [activator, partial curve, poor fit]"
O=C(Nc1c(C(=O)N2CCOCC2)cnn1-c1ccccc1)c1cccc(F)c1,inactive: 5.86%,
Nc1c(Cl)cc(-c2cn(CCC(=O)O)c(-c3ccc(Cl)nc3)n2)cc1Cl,inactive: -18.4%,
Cc1ccc(C(=O)OCC(=O)N(CCc2ccccc2)Cc2ccccc2)cc1S(=O)(=O)N1CCOCC1,inactive: 3.87%,
Cc1ccc(Cl)cc1NC(=O)C1CCCN1S(=O)(=O)c1ccc(-c2ccc(=O)[nH]n2)s1 (centres undefined),,active: 3.98 µM
COc1ccc(Br)cc1CN1CCN(Cc2c[nH]c3ccccc23)CC1,,"inconclusive: 29.1 µM [activator, single point]"
CCc1nnc(NC(=O)c2sc3nc4c(cc3c2N)CCCCC4)s1,,active: 8.2 µM
O=C(CN1C(=O)NC2(CCCCC2)C1=O)Nc1cc(C(F)(F)F)ccc1N1CCCCC1,,"inconclusive: 32.6 µM [activator, partial curve, poor fit]"
Cc1ccc(-c2cc(C(F)F)n3ncc(C(=O)N4CCN(c5cccc(C)c5C)CC4)c3n2)cc1,,"inconclusive: 20.6 µM [activator, single point]"
O=C(Cc1csc(Nc2nc(=S)[nH]c3ccccc23)n1)NCCCN1CCN(c2ccccc2F)CC1,,active: 18.4 µM
Cc1ccc(S(=O)(=O)N(CC(=O)NCCC2=CCCCC2)Cc2ccccc2)cc1,,"inconclusive: 23.1 µM [activator, single point]"
N#CC1=C(Nc2ccccc2)SC=C(c2ccccc2)N=C1N1CCOCC1,,"inconclusive: 0.291 µM [activator, full curve, poor fit]"
CC(C)(C)OC(=O)N[C@H](C(=O)OC(C)(C)C)c1ccc2c(c1)OCO2,,"inconclusive: 7.31 µM [activator, partial curve, poor fit]"
COc1ccc(NC(=O)CCS(=O)(=O)c2ccccc2Cl)cc1S(=O)(=O)Nc1ccc(Cl)cc1,,"inconclusive: 14.6 µM [activator, partial curve]"

# Source: PubChem BioAssay AID624297 (National Center for Advancing Translational Sciences (NCATS), 2012)
